# Results are given in words; binding and its absence hold for the method and conditions named. In cells and extracts the contact can be indirect. A yes stands for co-enrichment or nearness to the bait. Other partners may have been found. For part of these data: A no says only that the protein was not detected with the bait. For part of these data: Tags and fused reporters may be left off the sequences shown.
# Chains of the proteins cited; added tags and fusions are not shown.
# UniProt Q92793: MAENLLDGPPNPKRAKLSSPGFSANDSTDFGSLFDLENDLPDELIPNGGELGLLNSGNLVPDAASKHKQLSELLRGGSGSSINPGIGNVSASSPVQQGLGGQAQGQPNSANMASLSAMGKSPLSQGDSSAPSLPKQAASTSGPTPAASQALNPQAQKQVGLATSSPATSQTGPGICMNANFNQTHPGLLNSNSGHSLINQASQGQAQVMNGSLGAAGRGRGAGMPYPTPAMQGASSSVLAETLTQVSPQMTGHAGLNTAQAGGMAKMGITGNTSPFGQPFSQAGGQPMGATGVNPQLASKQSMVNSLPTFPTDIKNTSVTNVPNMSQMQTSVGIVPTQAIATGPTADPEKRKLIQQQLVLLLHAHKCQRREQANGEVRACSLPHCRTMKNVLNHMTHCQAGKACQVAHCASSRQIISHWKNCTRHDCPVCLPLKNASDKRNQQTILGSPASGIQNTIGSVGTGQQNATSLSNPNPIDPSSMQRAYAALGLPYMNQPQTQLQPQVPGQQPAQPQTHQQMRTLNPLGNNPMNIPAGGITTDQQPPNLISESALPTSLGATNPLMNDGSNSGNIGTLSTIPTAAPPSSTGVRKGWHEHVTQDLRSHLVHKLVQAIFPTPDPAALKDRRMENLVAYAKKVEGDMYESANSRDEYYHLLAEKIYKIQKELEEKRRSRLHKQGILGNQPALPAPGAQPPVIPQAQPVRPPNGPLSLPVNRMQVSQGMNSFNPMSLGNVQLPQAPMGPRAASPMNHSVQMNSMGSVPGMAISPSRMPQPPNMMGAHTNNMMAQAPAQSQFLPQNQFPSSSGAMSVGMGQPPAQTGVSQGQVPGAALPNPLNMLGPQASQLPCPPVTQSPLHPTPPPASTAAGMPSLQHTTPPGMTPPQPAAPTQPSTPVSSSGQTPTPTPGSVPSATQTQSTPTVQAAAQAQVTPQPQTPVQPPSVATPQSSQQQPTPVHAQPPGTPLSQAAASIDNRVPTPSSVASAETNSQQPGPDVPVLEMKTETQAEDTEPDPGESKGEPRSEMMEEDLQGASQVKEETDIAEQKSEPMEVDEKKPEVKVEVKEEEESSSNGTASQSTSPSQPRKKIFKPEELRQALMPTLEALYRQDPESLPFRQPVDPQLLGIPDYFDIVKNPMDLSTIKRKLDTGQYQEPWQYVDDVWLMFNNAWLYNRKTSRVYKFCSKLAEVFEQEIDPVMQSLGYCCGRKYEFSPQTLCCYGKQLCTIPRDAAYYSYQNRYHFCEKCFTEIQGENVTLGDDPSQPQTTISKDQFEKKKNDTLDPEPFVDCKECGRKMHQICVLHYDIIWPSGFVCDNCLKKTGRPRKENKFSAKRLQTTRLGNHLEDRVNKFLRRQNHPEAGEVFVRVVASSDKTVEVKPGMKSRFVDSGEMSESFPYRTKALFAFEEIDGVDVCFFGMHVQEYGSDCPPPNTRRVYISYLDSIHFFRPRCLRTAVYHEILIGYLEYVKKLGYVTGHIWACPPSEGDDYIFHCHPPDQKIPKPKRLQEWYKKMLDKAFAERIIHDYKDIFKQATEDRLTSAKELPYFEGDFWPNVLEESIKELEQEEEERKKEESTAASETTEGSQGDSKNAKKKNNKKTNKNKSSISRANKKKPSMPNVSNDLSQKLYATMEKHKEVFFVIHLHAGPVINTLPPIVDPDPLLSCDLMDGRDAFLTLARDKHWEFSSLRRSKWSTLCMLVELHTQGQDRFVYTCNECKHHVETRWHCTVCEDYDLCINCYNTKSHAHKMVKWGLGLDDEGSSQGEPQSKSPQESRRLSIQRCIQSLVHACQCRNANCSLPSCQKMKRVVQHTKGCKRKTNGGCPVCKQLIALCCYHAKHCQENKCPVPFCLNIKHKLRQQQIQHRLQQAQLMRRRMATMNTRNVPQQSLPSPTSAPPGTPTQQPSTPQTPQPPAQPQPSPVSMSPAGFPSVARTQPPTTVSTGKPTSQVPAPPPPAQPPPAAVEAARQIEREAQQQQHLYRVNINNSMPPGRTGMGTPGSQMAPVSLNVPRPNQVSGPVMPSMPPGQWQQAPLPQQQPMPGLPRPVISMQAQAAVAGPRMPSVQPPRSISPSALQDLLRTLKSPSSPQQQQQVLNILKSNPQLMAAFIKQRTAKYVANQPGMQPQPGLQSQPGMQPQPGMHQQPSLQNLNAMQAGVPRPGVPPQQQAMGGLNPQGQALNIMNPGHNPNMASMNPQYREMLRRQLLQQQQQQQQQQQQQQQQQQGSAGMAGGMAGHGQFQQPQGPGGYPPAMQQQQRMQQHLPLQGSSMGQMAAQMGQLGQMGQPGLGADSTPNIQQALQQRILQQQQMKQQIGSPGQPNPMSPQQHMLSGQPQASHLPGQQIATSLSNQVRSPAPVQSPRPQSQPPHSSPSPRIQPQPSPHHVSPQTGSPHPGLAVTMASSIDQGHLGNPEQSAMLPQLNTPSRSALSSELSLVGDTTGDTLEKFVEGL
# UniProt Q7Z5L9: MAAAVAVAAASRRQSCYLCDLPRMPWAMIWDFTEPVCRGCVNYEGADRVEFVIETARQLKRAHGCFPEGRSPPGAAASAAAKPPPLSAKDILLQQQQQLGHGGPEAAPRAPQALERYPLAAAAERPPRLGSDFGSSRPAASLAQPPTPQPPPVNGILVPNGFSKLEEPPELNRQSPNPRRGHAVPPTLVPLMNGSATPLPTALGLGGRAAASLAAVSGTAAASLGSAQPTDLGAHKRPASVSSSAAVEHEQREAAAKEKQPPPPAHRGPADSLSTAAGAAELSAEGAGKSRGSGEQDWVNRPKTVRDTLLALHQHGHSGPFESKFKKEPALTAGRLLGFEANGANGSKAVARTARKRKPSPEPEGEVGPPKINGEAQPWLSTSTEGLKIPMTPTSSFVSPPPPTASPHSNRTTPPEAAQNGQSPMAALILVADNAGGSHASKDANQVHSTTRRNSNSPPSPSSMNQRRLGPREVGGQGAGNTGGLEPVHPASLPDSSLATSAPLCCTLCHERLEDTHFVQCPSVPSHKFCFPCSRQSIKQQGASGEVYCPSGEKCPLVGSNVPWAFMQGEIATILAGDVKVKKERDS
# UniProt Q15788: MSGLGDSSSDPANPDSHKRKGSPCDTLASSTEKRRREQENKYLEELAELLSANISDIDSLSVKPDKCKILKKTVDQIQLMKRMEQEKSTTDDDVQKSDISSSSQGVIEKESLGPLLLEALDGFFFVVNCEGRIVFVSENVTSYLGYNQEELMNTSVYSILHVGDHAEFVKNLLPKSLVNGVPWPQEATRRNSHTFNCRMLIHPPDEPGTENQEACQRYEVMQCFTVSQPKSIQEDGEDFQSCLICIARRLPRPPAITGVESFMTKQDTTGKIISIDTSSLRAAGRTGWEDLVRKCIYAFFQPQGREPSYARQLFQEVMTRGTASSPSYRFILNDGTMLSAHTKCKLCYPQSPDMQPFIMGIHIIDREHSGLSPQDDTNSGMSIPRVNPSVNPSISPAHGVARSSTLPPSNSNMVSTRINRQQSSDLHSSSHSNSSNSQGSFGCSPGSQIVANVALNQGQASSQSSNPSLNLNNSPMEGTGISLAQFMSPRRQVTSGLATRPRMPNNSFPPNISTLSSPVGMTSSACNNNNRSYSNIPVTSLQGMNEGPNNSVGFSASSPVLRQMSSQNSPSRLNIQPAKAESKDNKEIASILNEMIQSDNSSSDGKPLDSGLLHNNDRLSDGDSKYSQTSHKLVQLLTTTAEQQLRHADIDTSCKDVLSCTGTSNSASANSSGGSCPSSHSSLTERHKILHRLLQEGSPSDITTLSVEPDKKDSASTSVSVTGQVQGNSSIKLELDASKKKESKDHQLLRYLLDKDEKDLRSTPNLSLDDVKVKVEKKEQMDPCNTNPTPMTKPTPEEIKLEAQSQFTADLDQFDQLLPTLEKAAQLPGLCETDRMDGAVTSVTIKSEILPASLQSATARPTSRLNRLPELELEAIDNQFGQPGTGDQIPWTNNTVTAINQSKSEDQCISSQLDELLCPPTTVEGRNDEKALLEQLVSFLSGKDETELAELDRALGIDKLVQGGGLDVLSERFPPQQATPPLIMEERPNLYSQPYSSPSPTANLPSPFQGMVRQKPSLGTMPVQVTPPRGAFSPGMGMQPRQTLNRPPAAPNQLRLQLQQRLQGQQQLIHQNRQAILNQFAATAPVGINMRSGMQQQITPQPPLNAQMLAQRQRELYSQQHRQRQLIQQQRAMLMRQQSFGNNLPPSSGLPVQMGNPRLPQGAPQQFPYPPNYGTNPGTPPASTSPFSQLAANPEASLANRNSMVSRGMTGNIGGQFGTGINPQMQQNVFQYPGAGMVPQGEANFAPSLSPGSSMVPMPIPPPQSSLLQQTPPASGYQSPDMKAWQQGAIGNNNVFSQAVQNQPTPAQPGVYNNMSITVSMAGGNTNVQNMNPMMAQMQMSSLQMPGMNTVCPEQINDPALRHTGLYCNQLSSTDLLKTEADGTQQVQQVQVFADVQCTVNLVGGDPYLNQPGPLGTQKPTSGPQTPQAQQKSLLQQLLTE
# T1: HNF4α9-BioID2-3myc (human) (UniProt P41235)
# T1 sequence: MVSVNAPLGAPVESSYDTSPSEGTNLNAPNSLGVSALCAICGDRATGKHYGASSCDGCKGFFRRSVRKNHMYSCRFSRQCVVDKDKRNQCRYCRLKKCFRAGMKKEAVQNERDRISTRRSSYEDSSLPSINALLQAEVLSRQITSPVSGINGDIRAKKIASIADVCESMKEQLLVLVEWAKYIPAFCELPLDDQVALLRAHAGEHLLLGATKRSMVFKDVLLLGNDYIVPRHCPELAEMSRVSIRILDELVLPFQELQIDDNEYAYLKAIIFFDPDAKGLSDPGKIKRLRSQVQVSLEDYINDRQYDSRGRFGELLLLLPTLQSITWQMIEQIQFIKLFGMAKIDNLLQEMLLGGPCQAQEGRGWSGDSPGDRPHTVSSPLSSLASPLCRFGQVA
# T2: HNF4α3-BioID2-3myc (human) (UniProt P41235)
# T2 sequence: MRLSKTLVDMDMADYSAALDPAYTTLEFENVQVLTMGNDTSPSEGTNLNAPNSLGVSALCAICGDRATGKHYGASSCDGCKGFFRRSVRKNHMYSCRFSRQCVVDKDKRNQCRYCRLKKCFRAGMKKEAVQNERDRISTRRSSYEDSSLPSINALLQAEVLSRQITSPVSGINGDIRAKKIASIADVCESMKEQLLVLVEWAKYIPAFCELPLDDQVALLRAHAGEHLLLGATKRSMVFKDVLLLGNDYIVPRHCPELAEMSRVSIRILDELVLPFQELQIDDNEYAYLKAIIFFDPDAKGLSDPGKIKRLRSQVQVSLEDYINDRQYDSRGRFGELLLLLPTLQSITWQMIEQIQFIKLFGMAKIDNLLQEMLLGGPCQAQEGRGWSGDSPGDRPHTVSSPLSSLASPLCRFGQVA
# T3: HNF4α5-BioID2-3myc (human) (UniProt P41235)
# T3 sequence: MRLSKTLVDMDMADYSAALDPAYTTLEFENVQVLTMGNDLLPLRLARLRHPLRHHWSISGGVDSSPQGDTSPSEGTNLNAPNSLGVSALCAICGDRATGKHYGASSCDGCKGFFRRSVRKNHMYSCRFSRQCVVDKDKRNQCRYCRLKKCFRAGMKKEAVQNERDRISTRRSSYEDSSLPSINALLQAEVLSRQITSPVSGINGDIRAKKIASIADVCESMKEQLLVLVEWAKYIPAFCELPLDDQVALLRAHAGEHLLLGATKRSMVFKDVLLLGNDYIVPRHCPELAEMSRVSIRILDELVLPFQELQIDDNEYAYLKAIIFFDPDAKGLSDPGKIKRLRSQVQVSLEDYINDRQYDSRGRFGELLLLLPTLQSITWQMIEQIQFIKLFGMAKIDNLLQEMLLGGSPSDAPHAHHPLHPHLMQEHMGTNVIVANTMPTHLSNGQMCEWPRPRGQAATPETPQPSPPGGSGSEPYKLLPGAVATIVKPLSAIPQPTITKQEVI
# B1: FOSL1 (protein, UniProt P15407 1-271)
# chain: MFRDFGEPGPSSGNGGGYGGPAQPPAAAQAAQQKFHLVPSINTMSGSQELQWMVQPHFLGPSSYPRPLTYPQYSPPQPRPGVIRALGPPPGVRRRPCEQISPEEEERRRVRRERNKLAAAKCRNRRKELTDFLQAETDKLEDEKSGLQREIEELQKQKERLELVLEAHRPICKIPEGAKEGDTGSTSGTSSPPAPCRPVPCISLSPGPVLEPEALHTPTLMTTPSLTPFTPSLVFTYPSTPEPCASAHRKSSSSSGDPSSDPLGSPTLLAL
# B2: HNF4γ (protein, UniProt Q14541 1-408)
# chain: MNTTDNGVNCLCAICGDRATGKHYGASSCDGCKGFFRRSIRKSHVYSCRFSRQCVVDKDKRNQCRYCRLRKCFRAGMKKEAVQNERDRISTRRSTFDGSNIPSINTLAQAEVRSRQISVSSPGSSTDINVKKIASIGDVCESMKQQLLVLVEWAKYIPAFCELPLDDQVALLRAHAGEHLLLGATKRSMMYKDILLLGNNYVIHRNSCEVEISRVANRVLDELVRPFQEIQIDDNEYACLKAIVFFDPDAKGLSDPVKIKNMRFQVQIGLEDYINDRQYDSRGRFGELLLLLPTLQSITWQMIEQIQFVKLFGMVKIDNLLQEMLLGGASNDGSHLHHPMHPHLSQDPLTGQTILLGPMSTLVHADQISTPETPLPSPPQGSGQEQYKIAANQASVISHQHLSKQKQL
# Tests used:
# Experiment in all cases: proximity labelling
# [1] = molecular target: HNF4α4-BioID2-3myc (human) (UniProt P41235)
# [2] = molecular target: T1, HNF4α9-BioID2-3myc (human)
# [3] = molecular target: T2, HNF4α3-BioID2-3myc (human)
# [4] = molecular target: HNF4α8-BioID2-3myc (human) (UniProt P41235)
# [5] = molecular target: HNF4α7-BioID2-3myc (human) (UniProt P41235)
# [6] = molecular target: T3, HNF4α5-BioID2-3myc (human)
# [7] = molecular target: HNF4α10-BioID2-3myc (human)
# [8] = molecular target: HNF4α1-BioID2-3myc (human)
# [9] = molecular target: HNF4α12-BioID2-3myc (human)
# [10] = molecular target: HNF4α11-BioID2-3myc (human)
# [11] = molecular target: HNF4α2-BioID2-3myc (human)
# [12] = molecular target: HNF4α6-BioID2-3myc (human)
Molecule,binding [1],binding [2],binding [3],binding [4],binding [5],binding [6],binding [7],binding [8],binding [9],binding [10],binding [11],binding [12]
CBP (from UniProt Q92793 1-2442),binds,binds,binds,binds,binds,binds,,,,,,
IRF-2BP2 (from UniProt Q7Z5L9 1-587),,no binding,no binding,,,,,,,,,
NCOA-1 (from UniProt Q15788 1-1441),binds,binds,binds,binds,binds,binds,,,,,,
B1,binds,binds,binds,binds,binds,binds,binds,binds,binds,binds,binds,binds
B2,binds,,,,,,,,,,,
